Reference: PubChem BioAssay AID652272 (Drosophila RNAi Screening Center, 2013)
The deposit covers about 21,000 reagents; this is a random part of those with a known target gene and a result. In the full data, 503 (2.4%) were called active. 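Raw plate light values, not normalised; calls rest on replicate z-scores that were not deposited; hits include reporter decreases as well as increases.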 Entries without a mark were called inactive. The record does not give: the amount of reagent, the time to read-out.

- Assay: 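Genes whose knock-down decreases or increases Hedgehog reporter output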 (primary screen)
- System: Drosophila clone 8 (Cl8) cells
- Knock-down reagent: long dsRNA against Drosophila genes
- Measured: 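Plate reader light from a firefly reporter under a ptc promoter fragment that responds to Hedgehog, with Renilla light as transfection reference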
- Scale: firefly Hh reporter signal: higher = more ptc reporter light; Renilla reference signal: higher = more Renilla control light
- Call rule: 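Hit when the z-score averaged over two replicates is under -2 or over +3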
- Calls: active = hit: reporter lowered or raised; inactive = not a hit

The opening 2 records, ahead of the listing:
predicted target | DRSC id | firefly Hh reporter signal, replicate 1 | firefly Hh reporter signal, replicate 2 | firefly Hh reporter signal, replicate 3 | Renilla reference signal, replicate 1 | Renilla reference signal, replicate 2
Hap40 | DRSC20085 | 1.05e5 | 78470 | – | 2041 | 1922
Lcp65Ad | DRSC11211 | 76232 | 55719 | – | 8947 | 4539

The list itself, from the first entry:
predicted target | DRSC id | firefly Hh reporter signal, replicate 1 | firefly Hh reporter signal, replicate 2 | firefly Hh reporter signal, replicate 3 | Renilla reference signal, replicate 1 | Renilla reference signal, replicate 2
Hap40 | DRSC20085 | 1.05e5 | 78470 | – | 2041 | 1922
Lcp65Ad | DRSC11211 | 76232 | 55719 | – | 8947 | 4539
CG15186 | DRSC12566 | 55776 | 1.01e5 | – | 2368 | 3097
CG34175 | DRSC00424 | 1.06e5 | 99109 | – | 1798 | 7850
CG16965 | DRSC02547 | 78438 | 60205 | – | 1849 | 5428
Dic1 | DRSC14125 | 1.39e5 | 63261 | – | 5635 | 1610
CG30287 | DRSC03875 | 98320 | 1.99e5 | – | 2768 | 9399
Gbp2 | DRSC06069 | 1.37e5 | 1.24e5 | – | 5869 | 4971
Hr78 | DRSC11866 | 1.22e5 | 93162 | – | 4410 | 3334
CG34433 | DRSC15077 | 1.02e5 | 90759 | – | 3756 | 2378
spag | DRSC04717 | 69770 | 51956 | – | 1773 | 4660
RpLP0 | DRSC11878 | 72009 (active) | 69383 | – | 2754 | 3893
AspRS-m | DRSC02646 | 76266 | 49941 | – | 2278 | 5269
Pcd | DRSC16785 | 1.20e5 | 88490 | – | 4150 | 2378
CG6508 | DRSC02963 | 1.16e5 | 63876 | – | 2899 | 5368
CG3223 | DRSC15468 | 89568 | 1.15e5 | – | 3584 | 3411
Vha16-4 | DRSC07321 | 81120 | 55160 | – | 2357 | 3942
CG10265 | DRSC05986 | 1.58e5 | 65274 | – | 5753 | 848
EbpII | DRSC04637 | 1.03e5 | 1.32e5 | – | 4835 | 5424
CG15082 | DRSC06513 | 1.06e5 | 50460 | – | 2348 | 2444
Est-P | DRSC11163 | 26021 | 28761 | 52420 | 2288 | 3272
CG14818 | DRSC18548 | 4.58e5 | 1.45e5 | – | 11824 | 4784
CG10801 | DRSC17761 | 58604 | 1.51e5 | – | 1312 | 5127
Gr93c | DRSC14587 | 7.77e5 | 1.52e5 | – | 43890 | 2509
hpo | DRSC06065 | 93383 | 84512 | – | 4251 | 3780
tomboy20 | DRSC14913 | 64069 | 1.16e5 | – | 2000 | 2800
noc | DRSC03580 | 40304 | 39336 | – | 2243 | 2116
CG42633 | DRSC16061 | 74211 | 94268 | – | 1144 | 2564
U3-55K | DRSC05982 | 73969 | 42935 | – | 2541 | 3692
bnk | DRSC16912 | 74584 | 97778 | – | 3123 | 3613
Rat1 | DRSC02044 | 1.08e5 | 36267 | – | 5222 | 2240
CG18563 | DRSC02676 | 92744 | 67232 | – | 2457 | 5702
RpS28a | DRSC15064 | 1.29e5 | 1.07e5 | – | 5049 | 3879
hpRNA:CR32205 | DRSC09610 | 2.10e5 | – | – | 5379 | –
hpRNA:CR32205 | DRSC09890 | 86352 | 97665 | – | 3184 | 2674
DNAlig1 | DRSC04518 | 58177 (active) | 36408 | – | 3865 | 2138
CG34338 | DRSC17535 | 4.92e5 | 1.34e5 | – | 28836 | 3585
Nep7 | DRSC15830 | 86986 | 1.35e5 | – | 3011 | 3607
CG8519 | DRSC10985 | 43736 | 47906 | – | 5616 | 3804
